Here are results for 1 substance from US20220098320A1, “SENOLYTIC CAR-T CELLS TARGETING UPAR, A CELL SURFACE AND SECRETED […]” (MEMORIAL SLOAN KETTERING CANCER CENTER, priority 2019, published 2022).

Protein sequences, listed by entry. Tags and fused reporters are not part of them. Lines headed by an entry give the natural chain unless they say otherwise; changes in a name come on top.
UniProt P10747: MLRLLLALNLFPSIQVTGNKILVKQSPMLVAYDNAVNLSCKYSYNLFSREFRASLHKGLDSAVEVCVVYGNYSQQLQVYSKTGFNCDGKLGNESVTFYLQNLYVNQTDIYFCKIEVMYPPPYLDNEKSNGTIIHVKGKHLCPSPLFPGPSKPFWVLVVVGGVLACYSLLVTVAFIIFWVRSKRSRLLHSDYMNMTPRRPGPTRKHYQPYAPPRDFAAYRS

For the assay, the target named is T1, mouse urokinase plasminogen activator receptor (uPAR) (mouse) (UniProt P35456).
T1 sequence (looked up): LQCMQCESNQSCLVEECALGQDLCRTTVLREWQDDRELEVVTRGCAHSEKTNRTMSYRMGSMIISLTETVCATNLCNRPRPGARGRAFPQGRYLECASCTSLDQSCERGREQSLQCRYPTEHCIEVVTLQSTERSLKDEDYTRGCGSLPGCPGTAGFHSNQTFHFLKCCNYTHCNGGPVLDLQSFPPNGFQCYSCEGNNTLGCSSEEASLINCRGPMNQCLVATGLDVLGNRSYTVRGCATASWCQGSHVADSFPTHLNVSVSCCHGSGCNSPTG
The assay can be described thus: flow cytometry on NALM6 and Eµ-ALL01 cells engineered to overexpress mouse uPAR against wild type cells.

No constants are given. Whether binding was seen depends on the method and setting. Some entries that bind do so weakly or less than the wild type.

For the substance “m.uPAR-h.28z chimeric antigen receptor (human SFG-m.uPAR-h28z CAR) (from UniProt P10747 114-220; P20963 52-163)”, the binding result is “binds”.
